Experimental data: the supplement of paper PMC5949888
Most values lie at the floor of the assay. Slopes are relative: functional sequences can read slightly below zero.

These substances were tested on Saccharomyces cerevisiae PS128 hsf1 delta, HSF1(1-493) fusion (assay: growth estimate (transactivation domain function in HSF1 fusion, heat-shock survival) (a.u. (slope of normalised read count over time)); higher = stronger growth at 37°C, i.e. more transactivation activity). Details: library: random library.

Substance	growth estimate
DAEMGRLSAGVCWFCRLRWV	< -0.25
ILMANVNHSVYPLRYATL	< -0.25
AWVVRQS	< -0.25
CDCRVSKPDSVWHSLTE	< -0.25
YYS	< -0.25
VLPFGTASFVVTRN	< -0.25
LRLLPWQHSILQAMLPGVQR	< -0.25
TGGKAKLFRAGSTTSHAANP	< -0.25
SHTRGSYVCTLVQCSVVL	< -0.25
PPPLRFTDNVPPGGTRCPCP	< -0.25
LSSSHSQSGRTKAKTTNAAA	< -0.25
TYGKCMTPRSNSFQLHLGER	< -0.25
SDFCQYP	< -0.25
QTRPSATRLITFYLITSVGS	< -0.25
FSIDVTRIIR	< -0.25
WVRWGEYPPDVWSIV	< -0.25
SQGFSIAERDHRTPQDPRR	< -0.25
SPKSLQPSYTRPG	< -0.25
IFSNRISTAFGDHRSVRRRH	< -0.25
TGSRP	< -0.25
PTGGVMARQARHS	< -0.25
IGGSRCQTFNPVVRSLRPGL	< -0.25
PAG	< -0.25
QFDSERRAMSCSIDRTHGRW	< -0.25
RHRPIFPSVVGRTVSPYDRS	< -0.25
GLGTNWFSVQ	< -0.25

Substance	growth estimate
SIYRPRVWGPEDLNRNQLRS	< -0.25
SIKTNKRLRYRMGRSRASAQ	< -0.25
AYSWMFLYFISCAKELVRRG	-0.225
IRQVS	< -0.25
PLESG	< -0.25
GQC	< -0.25
VQSDVCFLAAWIAKEV	< -0.25
ASRVGGSNESNEEATQNSP	< -0.25
WPGKEILSGRGNSRSSRLAS	< -0.25
IWVDQCTHVRLYWIFWVLLN	< -0.25
YHLTLGDYMILQTLGQFISL	< -0.25
YRGAHYVRHKPHCFTKFRLG	< -0.25
WKSN	< -0.25
AMDPLIDAARV	< -0.25
INHF	< -0.25
FRRHGSSVLPKTGPRANTLT	< -0.25
VRTRTVI	< -0.25
GHLLGSVSLIAYMTVGCRDT	< -0.25
GTAWAGDTHRSIPPDVMGLT	< -0.25
NGWVLMLTA	< -0.25
VKEGRLEDSPLWGVKRIDIT	< -0.25
VSPYGEWSEASAVVCLDVHC	< -0.25
VLRQGLNITVQNGTKTLPSA	< -0.25
HRMYALP	< -0.25
ISRPNGGWASRCADARGVIS	< -0.25
RTRDLVQRST	< -0.25

Substance	growth estimate
DIVD	< -0.25
GNGMVDEGLCGGIRRWKSPV	< -0.25
TSDYIPNSP	< -0.25
IQDRRMSSRRERTGLSS	< -0.25
VRVVPAASKIYKMLAYSRAT	< -0.25
HFKMAAMGEFHMVGVPKIPV	< -0.25
KGHRTAPTRR	< -0.25
NRDRVSGFRAIYERNQAFRY	< -0.25
RPTRVWVSTRERT	< -0.25
ACVGRPPGCSINCGT	-0.243
SRGHFAEPSRGAPTGLCLSS	< -0.25
KLVYMLTAHGCVAMLYATDL	< -0.25
LFQPLRAVLRQDGITTSLIP	< -0.25
VWYASECWGQLGRER	< -0.25
GDTMRGIRVSRNFSLVLLTI	< -0.25
RTMTSLRFAKRMTLPDIVG	< -0.25
HGQCSAGSRWHSDANVRMPG	< -0.25
ALRRVKCHRA	< -0.25
HLSAKDRSGEGERVTGRRER	< -0.25
THQYHSSAQSEICSARPGDG	< -0.25
LGTRGFRRRGVGIATQHIRL	< -0.25
GCLDKNDWTINSLWVNSVYG	< -0.25
RAGK	< -0.25
RGSLRTILSLMAVD	< -0.25
ACGPFVRCYLKRLGWDTRIT	< -0.25
PRKLKHRVKFEVEYGNLSTM	< -0.25

Reformatted: entries from further up
Substance | growth estimate
VLRQGLNITVQNGTKTLPSA | < -0.25
HRMYALP | < -0.25
ISRPNGGWASRCADARGVIS | < -0.25
RTRDLVQRST | < -0.25
DIVD | < -0.25
GNGMVDEGLCGGIRRWKSPV | < -0.25
TSDYIPNSP | < -0.25
IQDRRMSSRRERTGLSS | < -0.25
VRVVPAASKIYKMLAYSRAT | < -0.25
HFKMAAMGEFHMVGVPKIPV | < -0.25
KGHRTAPTRR | < -0.25
NRDRVSGFRAIYERNQAFRY | < -0.25
RPTRVWVSTRERT | < -0.25
ACVGRPPGCSINCGT | -0.243
SRGHFAEPSRGAPTGLCLSS | < -0.25
KLVYMLTAHGCVAMLYATDL | < -0.25
LFQPLRAVLRQDGITTSLIP | < -0.25
VWYASECWGQLGRER | < -0.25
GDTMRGIRVSRNFSLVLLTI | < -0.25
